Measurements: patent US20110212196A1, “THERAPEUTIC OIL COMPOSITION CONTAINING CARVONE” (MAINE CONSERVATION MEDICINE CENTER, priority 2010, published 2011)
Some results were stated once for a whole list of compounds, not compound by compound.

System: cold, cool, and warm water teleost fishes
Assay: anesthesia of teleost fishes by immersion in oil-in-water emulsion
Assay type: in vivo
Details: 400-600 mg/L carvone alone

With `C=C(C)C1CC=C(C)C(=O)C1` (stereo not drawn) [carvone] as the compound, how does the recovery time read?
The recovery time was 2 to 5 min.

And the “time until anesthetized to handleable condition” value?
The value was at most 2 min.

And the “time until anesthetized to surgical plane” value?
Its value is at most 5 min.
